# Reference: PubChem BioAssay (NCATS)
# Inconclusive means that the source gave no clear call. Such entries were picked first, then a sample of the others. Where the call is inconclusive, the potency comes from a doubtful curve fit. Calls of active or inactive are those of the source. Calls come from the whole dose curve; as a rule, active = well fitted inhibition curve with a large enough effect; inconclusive = small, poorly fitted or top-dose-only effect; inactive = no such curve, though single readings can be large or run the other way.
# Biological target: Retinaldehyde dehydrogenase 3 (Homo sapiens) (UniProt P47895)
# Assay: qHTS for Inhibitors of the Aldehyde Dehydrogenase Family (ALDH1A3) Validation screen (AID 2061312); note: nearly all actives have a fitted effect of over 45% in size
# Details: ALDH1A3 enzyme inhibition qHTS validation, fluorescence; activity change, negative = inhibition: at 84.7 µM (top of the series)
# % is set by controls: 0 for no effect and ±100 for the full control effect; potency is the fitted concentration of half-maximal effect.
Compound,"activity change, negative = inhibition",Potency
CCCCCCCCCCCCCCCCCCOC[C@H](COP(=O)([O-])OCC[N+](C)(C)C)OC,inactive: 22% [at 42.4 µM],
Oc1ccc2nc(CN3CCC(Cc4ccccc4F)CC3)[nH]c2c1,inactive: 20.6%,
CCCS(=O)c1ccc2nc(NC(=O)OC)[nH]c2c1 (stereo not given),,"inconclusive: 1.41 µM [inhibitor, full curve, poor fit]"
CCN1CCN(Cc2ccc(NC(=O)c3ccc(C)c(Oc4ncnc5[nH]c(C)cc45)c3)cc2C(F)(F)F)CC1,inactive: 99.2%,
COc1cc(-c2ncn(/C=C\C(=O)OC(C)C)n2)cc(C(F)(F)F)c1,,"inconclusive: 39.8 µM [inhibitor, partial curve, poor fit]"
CCOC(=O)Nc1cc(-c2ccc(C)c(NS(C)(=O)=O)c2)nn2c(C)nnc12,inactive: -16.9%,
Oc1ccc2c(-c3c(-c4ccccn4)nn4c3CCC4)ccnc2c1,,"inconclusive: 12.6 µM [inhibitor, partial curve, poor fit]"
COc1ccc(S(=O)(=O)Nc2c(C)cc(C)cc2C)cc1,,"inconclusive: 56.2 µM [inhibitor, partial curve, poor fit]"
CCOC(=O)C1=C(C)NC(C)=C(C(=O)OC)C1c1cccc([N+](=O)[O-])c1 (stereo not given),,"inconclusive: 1.12 µM [inhibitor, full curve]"
CC[C@H]1OC(=O)[C@H](C)[C@@H](O[C@H]2C[C@@](C)(OC)[C@@H](O)[C@H](C)O2)[C@H](C)[C@@H](O[C@@H]2O[C@H](C)C[C@H](N(C)C)[C@H]2O)[C@](C)(O)C[C@@H](C)C(=O)[C@H](C)[C@H]2OC(=O)O[C@@]21C,inactive: 0.548%,
O=C(CCCCCCC(=O)Nc1ccc(C2OC(CSc3nc(-c4ccccc4)c(-c4ccccc4)o3)CC(c3ccc(CO)cc3)O2)cc1)NO (stereo not given),,active: 10 µM
Cc1ccc(S(=O)(=O)Nc2ccccc2N2CCCCC2)s1,,"inconclusive: 25.1 µM [inhibitor, full curve, poor fit]"
O=C(Nc1cc2cc[nH]c2cn1)c1ccccc1,,active: 39.8 µM
CNCC(O)c1ccc(O)c(O)c1 (stereo not given),,"inconclusive: 17.8 µM [inhibitor, partial curve, poor fit]"
O=C(c1ccccc1)c1ccc2n1CCC2C(=O)O (stereo not given),,"inconclusive: 10 µM [inhibitor, partial curve, poor fit]"
COC(=O)c1cc2c(C(F)(F)F)cc(-c3ccccc3)cc2n1O,,"inconclusive: 10 µM [inhibitor, full curve, poor fit]"
CNCCC(Oc1ccccc1OC)c1ccccc1 (stereo not given),inactive: -6.87% [at 42.4 µM],
COc1cc2c(cc1OC(C)C)[C@H](c1ccc(Cl)cc1)N(c1ccc(N(C)CC3CCC(N4CCN(C)C(=O)C4)CC3)cc1)C(=O)C2 (stereo not given in full),,"inconclusive: 44.7 µM [inhibitor, partial curve]"
CCS(=O)c1nc(-c2cccc(OCc3ccccc3)c2)cc(C(F)(F)F)n1 (stereo not given),inactive: 1.72%,
CC(=O)OC1C(=O)C2(C)C(O)CC3OCC3(OC(C)=O)C2C(OC(=O)c2ccccc2)C2(O)CC(OC(=O)C(O)C(NC(=O)c3ccccc3)c3ccccc3)C(C)=C1C2(C)C (stereo not given),inactive: -10.2%,

# One compound at a time, as listed above.
# `COc1cc(-c2ncn(/C=C\C(=O)OC(C)C)n2)cc(C(F)(F)F)c1` in the list: Potency: inconclusive: 39.8 µM [inhibitor, partial curve, poor fit]
# `CNCCC(Oc1ccccc1OC)c1ccccc1` (stereo not given) in the list: activity change, negative = inhibition: inactive: -6.87% [at 42.4 µM]
# `O=C(CCCCCCC(=O)Nc1ccc(C2OC(CSc3nc(-c4ccccc4)c(-c4ccccc4)o3)CC(c3ccc(CO)cc3)O2)cc1)NO` (stereo not given) in the list: Potency: active: 10 µM

# Remaining list, next part:

Compound,"activity change, negative = inhibition",Potency
CC(C)c1cccc2c(-c3ccccc3)cc(-c3ccc(-c4ccc(C(=O)O)cc4)[nH]3)nc12,,"inconclusive: 31.6 µM [inhibitor, partial curve]"
CCCCCC[C@@H]([C@@H](C)O)n1cnc2c(N)ncnc21,,"inconclusive: 1 µM [inhibitor, full curve, poor fit]"
NCC1OC(O[C@H]2[C@H](O)[C@@H](OC3C(O)C(N)CC(N)C3OC3OC(CO)C(O)C(O)C3N)O[C@@H]2CO)C(N)C(O)C1O (stereo not given in full),inactive: -16.8% [at 42.4 µM],
CC[C@H](/C=C/[C@@H](C)[C@H]1CC[C@H]2[C@@H]3CC=C4C[C@@H](O)CC[C@]4(C)[C@H]3CC[C@]12C)C(C)C,inactive: -13.7% [at 9.14 µM],
CCS(=O)(=O)N(Cc1cccnc1)c1cccc(-c2ccc(C#N)cc2)c1,,active: 6.31 µM
CCCSc1nc(N[C@@H]2C[C@H]2c2ccc(F)c(F)c2)c2nnn([C@@H]3C[C@H](OCCO)[C@@H](O)[C@H]3O)c2n1,inactive: -46%,
O=S(=O)(NCC1CC1)c1ccc(Nc2nccc(N3CCCc4cc(O)ccc43)n2)cc1,,"inconclusive: 56.2 µM [inhibitor, partial curve, poor fit]"
CCOC(=O)N1CCC(NCCNC(=O)c2ccccc2C)CC1,inactive: -1.34%,
O=C(NNc1nc2cc(F)ccc2n2cccc12)c1cnccn1,,"inconclusive: 31.6 µM [inhibitor, partial curve, poor fit]"
COc1ccc(C2Sc3ccccc3N(CCN(C)C)C(=O)C2OC(C)=O)cc1 (stereo not given),inactive: 4.57% [at 42.4 µM],
CN(C)CCN(Cc1ccccc1)C(=O)c1cc(-c2ccc(F)cc2)n2nc(C(C)(C)C)cc2n1,inactive: 9.11%,
O=C(Nc1cn[nH]c1-c1nc2ccc(CN3CCOCC3)cc2[nH]1)NC1CC1,inactive: 35%,
NC1CCN(O)C1=O (stereo not given),,"inconclusive: 7.94 µM [inhibitor, partial curve]"
COc1c/c(=C2\C=c3ccccc3=N2)[nH]/c1=C\c1[nH]c(C)cc1C,,"inconclusive: 28.2 µM [inhibitor, partial curve]"
CN(C)CCN(Cc1ccc(-c2ccc(CNCCc3ccccc3)cc2)cc1)C(=O)CCC1CCCC1,,"inconclusive: 2 µM [inhibitor, full curve, poor fit]"
C=C(C)Cn1c(SCC(=O)c2cccs2)nc2sc3c(c2c1=O)CCCC3,,"inconclusive: 35.5 µM [inhibitor, partial curve]"
COc1ccc(CNC(=O)c2sc3nc(C)cc(C)c3c2N)cc1,,"inconclusive: 4.47 µM [inhibitor, full curve]"
COc1ncc(-c2ccc3c(Nc4cc(Oc5cc(F)cc(F)c5)cc(C(=O)O)c4)c(S(=O)(=O)NC4CC4)cnc3c2)c(OC)n1,,"inconclusive: 31.6 µM [inhibitor, partial curve]"
N#Cc1ccc2[nH]c(O)c(-c3ccc(CN4CCOCC4)cn3)c2c1,,active: 10 µM
Cc1[nH]c2ccccc2c1CCNC(=O)c1ccccc1F,,"inconclusive: 50.1 µM [inhibitor, partial curve, poor fit]"
